The record followed here is PMC8306909.

Amino acid sequences for entries named in this document (tags omitted).
UniProt Q16875: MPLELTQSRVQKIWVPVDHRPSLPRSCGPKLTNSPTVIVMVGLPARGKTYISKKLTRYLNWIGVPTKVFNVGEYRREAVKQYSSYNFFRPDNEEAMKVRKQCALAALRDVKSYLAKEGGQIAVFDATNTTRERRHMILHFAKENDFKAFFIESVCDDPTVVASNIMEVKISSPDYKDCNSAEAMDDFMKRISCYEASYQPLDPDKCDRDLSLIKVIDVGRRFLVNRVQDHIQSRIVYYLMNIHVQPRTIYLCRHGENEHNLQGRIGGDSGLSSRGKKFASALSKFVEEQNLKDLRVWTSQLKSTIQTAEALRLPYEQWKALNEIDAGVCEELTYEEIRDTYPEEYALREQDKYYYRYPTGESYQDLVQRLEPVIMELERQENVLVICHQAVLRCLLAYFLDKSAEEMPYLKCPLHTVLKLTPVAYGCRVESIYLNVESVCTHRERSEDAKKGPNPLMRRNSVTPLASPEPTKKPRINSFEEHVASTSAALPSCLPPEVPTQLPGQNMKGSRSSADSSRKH
UniProt Q9BXW9: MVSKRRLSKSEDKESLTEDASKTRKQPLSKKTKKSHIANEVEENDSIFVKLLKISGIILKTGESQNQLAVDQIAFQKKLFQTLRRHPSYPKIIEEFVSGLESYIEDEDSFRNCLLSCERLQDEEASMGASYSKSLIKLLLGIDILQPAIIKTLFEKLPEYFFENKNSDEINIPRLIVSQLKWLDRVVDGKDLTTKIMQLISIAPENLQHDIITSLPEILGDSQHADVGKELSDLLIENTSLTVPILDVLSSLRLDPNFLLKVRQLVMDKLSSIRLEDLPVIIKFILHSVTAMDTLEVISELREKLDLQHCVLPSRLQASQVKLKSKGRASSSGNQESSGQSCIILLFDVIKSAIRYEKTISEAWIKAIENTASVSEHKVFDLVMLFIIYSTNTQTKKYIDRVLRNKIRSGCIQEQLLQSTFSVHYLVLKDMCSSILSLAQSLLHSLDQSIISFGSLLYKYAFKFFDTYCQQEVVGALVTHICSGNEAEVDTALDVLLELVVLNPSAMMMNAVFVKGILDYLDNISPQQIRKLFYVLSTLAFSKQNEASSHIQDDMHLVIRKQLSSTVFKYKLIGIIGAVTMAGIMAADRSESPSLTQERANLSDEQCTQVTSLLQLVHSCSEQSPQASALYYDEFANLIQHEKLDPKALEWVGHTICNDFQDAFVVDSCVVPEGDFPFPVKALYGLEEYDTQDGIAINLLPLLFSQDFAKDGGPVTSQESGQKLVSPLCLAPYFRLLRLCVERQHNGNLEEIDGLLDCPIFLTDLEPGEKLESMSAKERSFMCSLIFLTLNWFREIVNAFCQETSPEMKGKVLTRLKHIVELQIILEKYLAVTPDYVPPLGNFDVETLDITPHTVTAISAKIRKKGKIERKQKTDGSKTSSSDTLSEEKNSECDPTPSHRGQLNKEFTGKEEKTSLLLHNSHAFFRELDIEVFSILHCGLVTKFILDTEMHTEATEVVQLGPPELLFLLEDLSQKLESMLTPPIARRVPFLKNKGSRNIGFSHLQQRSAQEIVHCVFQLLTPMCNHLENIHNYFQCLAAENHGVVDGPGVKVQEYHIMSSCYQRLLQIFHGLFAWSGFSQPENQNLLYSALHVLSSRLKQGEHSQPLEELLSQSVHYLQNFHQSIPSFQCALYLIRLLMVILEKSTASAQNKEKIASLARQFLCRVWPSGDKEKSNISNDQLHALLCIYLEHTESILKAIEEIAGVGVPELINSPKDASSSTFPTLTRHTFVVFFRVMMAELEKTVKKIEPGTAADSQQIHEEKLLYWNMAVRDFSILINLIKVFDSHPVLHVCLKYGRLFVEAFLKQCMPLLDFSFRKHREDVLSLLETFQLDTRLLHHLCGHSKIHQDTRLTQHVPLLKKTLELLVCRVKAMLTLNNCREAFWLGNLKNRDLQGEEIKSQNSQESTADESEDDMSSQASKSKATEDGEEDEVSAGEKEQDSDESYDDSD

The test deals with 6-phosphofructo-2-kinase/fructose-2,6,-bisphophatase 3 (PFKFB3) (human (endogenous in U2OS)) (UniProt Q16875). Briefly: co-IP; chromatin fraction of U2OS cells; immunoprecipitation with rabbit anti-PFKFB3 or rabbit anti-BLM (2 ug/sample) on Dynabeads Protein G, immunoblot; cells treated with MMC, with or without PFKFB3i or ATR inhibitor. A general note: Immunoblotting shows a protein as a band on a membrane.

These are yes or no findings as the source states them, for the method shown. Binding seen in cells or lysates may run through a third protein. Some binding calls cover weakened binding; strength is not graded here.

As for FANCD2 (from UniProt Q9BXW9 1-1451), the binding entry is “binds”.
